Results as given in the supplement of paper PMC7125110.
± gives the standard error. Many entries were measured with a wide error.

B1: glmS ribozyme (parent)
chain: AUAAAAGCGCCAGAACUACAGAAAUGUAGUUGACGAGGAGGAGGUUUAUCGAAUUUUCGGCGGAUGCCUCCAAA

Variants of: B1
Experiment: kcat; higher = faster cleavage; RNA array
Settings: with glucosamine-6-phosphate
How it was run: (§1)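 E. coli RNA polymerase transcribed barcoded ribozyme variants in situ on sequenced MiSeq chips, which were tracked via a hybridised Cy3 probe at 37 °C. Tiles were imaged over ~14 h after glucosamine-6-phosphate (40 μM to 10 mM) in HEPES/KCl/Mg(OAc)2 buffer was flowed in. Normalised per-tile medians were fit to one- or two-exponential decays for kobs, and kcat and KM came from weighted Michaelis–Menten fits.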
A36G C50A C67U was tested, and the kcat was 2.36e-05 ± 1.2e-05 s⁻¹.
In the case of G38C G66C C70U, the kcat is reported as 1.23e-05 ± 9.7e-07 s⁻¹.
For G43U C67G, the kcat was 0.00171 ± 0.00015 s⁻¹.
Variant U57C G62A C67U C68G has a kcat of 1.22e-05 ± 7.5e-06 s⁻¹.
In the case of U30A A42G, the kcat is reported as 0.00329 ± 0.0022 s⁻¹.
With G38A A52G C68G the kcat was 3.67e-05 ± 2.2e-05 s⁻¹.
U30A U65G gave a kcat of 0.00214 ± 0.00022 s⁻¹.
For G51A C71A, the kcat was 1.9e-05 ± 9e-07 s⁻¹.
A39U A53U was tested, and the kcat was 0.0113 ± 0.0033 s⁻¹.
A39C C70A was tested, and the kcat was less than 1e-05 s⁻¹.
G41A A42C showed a kcat of 4.51e-05 ± 1.7e-05 s⁻¹.
Variant G38U A64C has a kcat of 1.58e-05 ± 1.1e-05 s⁻¹.
In the case of G32U U47A, the kcat is reported as 0.000688 ± 0.00026 s⁻¹.
U54C C71U was tested, and the kcat was 0.00647 ± 0.0042 s⁻¹.
Work on U30G C70U yielded a kcat of 0.00176 ± 0.00098 s⁻¹.
In the case of G38U C50U, the kcat is reported as 1.93e-05 ± 1e-05 s⁻¹.
U30A G32C gave a kcat of 0.00103 ± 0.00059 s⁻¹.
A42C A53U gave a kcat of 9.64e-05 ± 5.9e-05 s⁻¹.
U31A C50G gave a kcat of 4.08e-05 ± 3.7e-05 s⁻¹.
With U56A C67U the kcat was 0.00186 ± 0.0011 s⁻¹.
Variant U30G U55G C71U has a kcat of 0.00602 ± 0.0031 s⁻¹.
For U65G C67A, the kcat was 0.00816 ± 0.0055 s⁻¹.
In the case of U31G A42G, the kcat is reported as 0.0163 ± 0.0088 s⁻¹.
With G63C U69G the kcat was 3.25e-05 ± 1.9e-05 s⁻¹.
In the case of U31A C70A, the kcat is reported as 0.000251 ± 0.00014 s⁻¹.
C58A U69A showed a kcat of 5.48e-05 ± 2.9e-05 s⁻¹.
Variant G37C C68G has a kcat of 1.8e-05 ± 3.8e-06 s⁻¹.
In the case of U30C C58G, the kcat is reported as 2e-05 ± 1.6e-06 s⁻¹.
U30A U47G showed a kcat of 0.000918 ± 0.00028 s⁻¹.
U54G C67A was tested, and the kcat was 0.00581 ± 0.0044 s⁻¹.

Variants of: B1
Experiment: KM; higher = weaker cofactor use; RNA array
Settings: with glucosamine-6-phosphate
How it was run: as §1
With G43U C67G the KM was 1020 ± 150 µM.
U30A U65G showed a KM of 5250 ± 1000 µM.
In the case of G51A C71A, the KM is reported as 105 ± 32 µM.
A39U A53U showed a KM of 1260 ± 530 µM.
G32U U47A gave a KM of 3850 ± 2200 µM.
For U54C C71U, the KM was 371 ± 340 µM.
U30G C70U gave a KM of 264 ± 250 µM.
For U30A G32C, the KM was 40400 ± 28000 µM.
With A42C A53U the KM was 84700 ± 58000 µM.
U56A C67U was tested, and the KM was 457 ± 430 µM.
U30G U55G C71U was tested, and the KM was 1690 ± 1400 µM.
U65G C67A gave a KM of 10300 ± 8200 µM.
Variant U31G A42G has a KM of 2250 ± 1800 µM.
U31A C70A showed a KM of 7490 ± 7000 µM.
U30C C58G gave a KM of 184 ± 120 µM.
For U30A U47G, the KM was 635 ± 430 µM.
A6C U47C was tested, and the KM was 526 ± 77 µM.

Variants of: B1
Experiment: self-cleavage kobs at 2500 uM GlcN6P; higher = faster cleavage; RNA array
Settings: with glucosamine-6-phosphate
How it was run: as §1
In the case of U30A A42G, the “self-cleavage kobs at 2500 uM GlcN6P” value is reported as 0.00284 ± 0.0015 s⁻¹.
In the case of G38A A52G C68G, the “self-cleavage kobs at 2500 uM GlcN6P” value is reported as 3.17e-05 ± 2.8e-05 s⁻¹.
G63C U69G was tested, and the “self-cleavage kobs at 2500 uM GlcN6P” value was 2.68e-05 ± 2e-05 s⁻¹.
In the case of G37C C68G, the “self-cleavage kobs at 2500 uM GlcN6P” value is reported as 1.93e-05 ± 1.5e-05 s⁻¹.

Variants of: B1
Experiment: self-cleavage kobs at 40 uM GlcN6P; higher = faster cleavage; RNA array
Settings: with glucosamine-6-phosphate
How it was run: as §1
U31A C50G was tested, and the “self-cleavage kobs at 40 uM GlcN6P” value was 2.25e-05 ± 1.8e-05 s⁻¹.

Variants of: B1
Experiment: self-cleavage kobs at 10000 uM GlcN6P; higher = faster cleavage; RNA array
Settings: with glucosamine-6-phosphate
How it was run: as §1
With U31A C50G the “self-cleavage kobs at 10000 uM GlcN6P” value was 1.7e-05 ± 1.4e-05 s⁻¹.

Variants of: B1
Experiment: self-cleavage kobs at 640 uM GlcN6P; higher = faster cleavage; RNA array
Settings: with glucosamine-6-phosphate
How it was run: as §1
In the case of U31A C70A, the “self-cleavage kobs at 640 uM GlcN6P” value is reported as 6.75e-05 ± 3.5e-05 s⁻¹.
In the case of G37C C68G, the “self-cleavage kobs at 640 uM GlcN6P” value is reported as 1.91e-05 ± 1.6e-05 s⁻¹.

Variants of: B1
Experiment: self-cleavage kobs at 160 uM GlcN6P; higher = faster cleavage; RNA array
Settings: with glucosamine-6-phosphate
How it was run: as §1
For G37C C68G, the “self-cleavage kobs at 160 uM GlcN6P” value was 2e-05 ± 1.7e-05 s⁻¹.
